Source: PMC5469853
Results are given in words; binding and its absence hold for the method and conditions named.

Sequences of proteins named here, by UniProt entry; tags and fusion partners are left off. A change or cut given only in a name is not applied to a line headed by its entry. Residues count along the entry.
UniProt P02769, residues 25-607: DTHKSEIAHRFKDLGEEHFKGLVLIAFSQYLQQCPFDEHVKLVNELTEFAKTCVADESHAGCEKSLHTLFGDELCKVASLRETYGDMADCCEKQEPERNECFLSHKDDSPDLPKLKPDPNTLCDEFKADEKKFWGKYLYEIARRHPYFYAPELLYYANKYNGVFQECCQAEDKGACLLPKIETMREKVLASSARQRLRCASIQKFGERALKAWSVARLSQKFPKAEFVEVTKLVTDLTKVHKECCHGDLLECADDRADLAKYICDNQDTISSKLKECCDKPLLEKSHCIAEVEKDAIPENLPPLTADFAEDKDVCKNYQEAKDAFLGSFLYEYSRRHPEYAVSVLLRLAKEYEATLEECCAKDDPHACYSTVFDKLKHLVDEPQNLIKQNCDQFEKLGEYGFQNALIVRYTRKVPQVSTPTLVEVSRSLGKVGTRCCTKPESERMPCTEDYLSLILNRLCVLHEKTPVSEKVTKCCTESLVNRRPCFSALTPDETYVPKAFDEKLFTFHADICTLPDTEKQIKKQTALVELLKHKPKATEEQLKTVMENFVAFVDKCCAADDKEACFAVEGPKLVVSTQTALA
UniProt P17301: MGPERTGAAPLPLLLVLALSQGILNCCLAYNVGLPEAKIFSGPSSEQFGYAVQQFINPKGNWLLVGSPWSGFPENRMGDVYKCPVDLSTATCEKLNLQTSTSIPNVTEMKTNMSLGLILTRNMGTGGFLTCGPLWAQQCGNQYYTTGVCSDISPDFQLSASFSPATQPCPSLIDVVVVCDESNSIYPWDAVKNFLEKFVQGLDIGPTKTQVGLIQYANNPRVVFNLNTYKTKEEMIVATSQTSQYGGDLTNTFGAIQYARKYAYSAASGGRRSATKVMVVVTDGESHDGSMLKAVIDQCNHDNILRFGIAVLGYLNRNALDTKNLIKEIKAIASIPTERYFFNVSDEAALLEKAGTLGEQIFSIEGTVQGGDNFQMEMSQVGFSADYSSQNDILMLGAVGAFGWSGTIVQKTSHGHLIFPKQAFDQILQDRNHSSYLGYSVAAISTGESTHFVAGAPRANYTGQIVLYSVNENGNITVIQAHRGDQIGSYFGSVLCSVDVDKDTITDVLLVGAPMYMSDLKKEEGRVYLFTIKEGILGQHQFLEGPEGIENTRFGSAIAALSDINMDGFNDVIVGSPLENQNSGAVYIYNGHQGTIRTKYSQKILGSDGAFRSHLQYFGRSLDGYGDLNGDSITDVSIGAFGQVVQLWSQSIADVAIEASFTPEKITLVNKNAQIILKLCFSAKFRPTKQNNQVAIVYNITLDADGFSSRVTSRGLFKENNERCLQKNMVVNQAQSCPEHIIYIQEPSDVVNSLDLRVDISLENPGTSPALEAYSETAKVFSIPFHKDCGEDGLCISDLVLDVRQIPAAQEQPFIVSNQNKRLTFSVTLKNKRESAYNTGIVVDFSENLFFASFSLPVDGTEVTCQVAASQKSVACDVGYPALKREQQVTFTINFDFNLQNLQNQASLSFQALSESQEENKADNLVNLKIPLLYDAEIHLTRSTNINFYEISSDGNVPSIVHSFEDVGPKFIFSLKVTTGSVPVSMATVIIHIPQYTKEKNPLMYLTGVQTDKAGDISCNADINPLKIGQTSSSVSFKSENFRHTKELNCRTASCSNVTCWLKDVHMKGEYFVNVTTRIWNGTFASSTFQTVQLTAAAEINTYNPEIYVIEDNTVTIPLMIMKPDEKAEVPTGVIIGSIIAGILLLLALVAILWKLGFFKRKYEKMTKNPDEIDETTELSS

Molecular target: BSA (bovine (from the name BSA)) (UniProt P02769)
Assay: cell adhesion and spreading on a coated surface; plates coated with EV1 (2.5 μg/cm2), type I collagen (5 μg/cm2) or 0.1% BSA, blocked with 0.1% BSA; cells in serum free DMEM plated on the wells; phase contrast images at 0-60 min; only the target purified

For “α2β1 integrin with the loss-of-function mutation E336A in the α2 subunit (from UniProt P17301 30-1181; P05556 21-798) (receptor)”, the binding was “no binding”.
